Results as given in publication PMC8730729.
These are yes or no findings as the source states them, for the method shown. In cells and extracts the contact can be indirect. Here binding means that the protein was enriched with, or labelled near, the bait; the list need not be complete. For some assays here: Tags and fused reporters may be left off the sequences shown.

The chains behind the UniProt entries cited, without tags or fusion partners.
UniProt Q86V87: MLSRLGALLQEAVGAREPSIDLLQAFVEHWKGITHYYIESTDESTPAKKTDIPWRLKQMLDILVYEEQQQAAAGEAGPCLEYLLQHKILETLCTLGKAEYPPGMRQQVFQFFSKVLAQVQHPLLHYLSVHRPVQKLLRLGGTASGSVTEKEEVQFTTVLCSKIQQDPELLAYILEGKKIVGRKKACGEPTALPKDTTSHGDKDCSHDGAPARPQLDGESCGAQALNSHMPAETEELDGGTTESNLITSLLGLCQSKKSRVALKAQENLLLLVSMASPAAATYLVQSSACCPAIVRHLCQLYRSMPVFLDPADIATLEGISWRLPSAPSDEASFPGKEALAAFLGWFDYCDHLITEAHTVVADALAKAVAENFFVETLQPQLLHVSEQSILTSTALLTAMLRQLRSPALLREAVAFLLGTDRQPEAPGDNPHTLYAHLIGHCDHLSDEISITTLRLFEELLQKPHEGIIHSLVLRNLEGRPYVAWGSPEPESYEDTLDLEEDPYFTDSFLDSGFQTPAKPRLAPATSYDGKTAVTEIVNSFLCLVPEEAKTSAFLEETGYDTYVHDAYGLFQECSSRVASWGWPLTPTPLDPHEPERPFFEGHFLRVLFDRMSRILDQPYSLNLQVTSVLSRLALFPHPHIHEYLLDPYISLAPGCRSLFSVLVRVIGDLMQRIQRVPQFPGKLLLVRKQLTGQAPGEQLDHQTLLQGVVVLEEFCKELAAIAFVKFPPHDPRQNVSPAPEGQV

B1: Hook2, endogenous in 293T cells (protein, UniProt Q96ED9 1-719)
chain: MSVDKAELCGSLLTWLQTFHVPSPCASPQDLSSGLAVAYVLNQIDPSWFNEAWLQGISEDPGPNWKLKVSNLKMVLRSLVEYSQDVLAHPVSEEHLPDVSLIGEFSDPAELGKLLQLVLGCAISCEKKQDHIQRIMTLEESVQHVVMEAIQELMTKDTPDSLSPETYGNFDSQSRRYYFLSEEAEEGDELQQRCLDLERQLMLLSEEKQSLAQENAGLRERMGRPEGEGTPGLTAKKLLLLQSQLEQLQEENFRLESGREDERLRCAELEREVAELQHRNQALTSLAQEAQALKDEMDELRQSSERAGQLEATLTSCRRRLGELRELRRQVRQLEERNAGHAERTRQLEDELRRAGSLRAQLEAQRRQVQELQGQRQEEAMKAEKWLFECRNLEEKYESVTKEKERLLAERDSLREANEELRCAQLQPRGLTQADPSLDPTSTPVDNLAAEILPAELRETLLRLQLENKRLCRQEAADRERQEELQRHLEDANRARHGLETQHRLNQQQLSELRAQVEDLQKALQEQGGKTEDAISILLKRKLEEHLQKLHEADLELQRKREYIEELEPPTDSSTARRIEELQHNLQKKDADLRAMEERYRRYVDKARMVMQTMEPKQRPAAGAPPELHSLRTQLRERDVRIRHLEMDFEKSRSQREQEEKLLISAWYNMGMALQQRAGEERAPAHAQSFLAQQRLATNSRRGPLGRLASLNLRPTDKH
B2: GOLGA5, endogenous in 293T cells (protein, UniProt Q8TBA6 1-731)
chain: MSWFVDLAGKAEDLLNRVDQGAATALSRKDNASNIYSKNTDYTELHQQNTDLIYQTGPKSTYISSAADNIRNQKATILAGTANVKVGSRTPVEASHPVENASVPRPSSHFVRRKKSEPDDELLFDFLNSSQKEPTGRVEIRKEKGKTPVFQSSQTSSVSSVNPSVTTIKTIEENSFGSQTHEAASNSDSSHEGQEESSKENVSSNAACPDHTPTPNDDGKSHELSNLRLENQLLRNEVQSLNQEMASLLQRSKETQEELNKARARVEKWNADHSKSDRMTRGLRAQVDDLTEAVAAKDSQLAVLKVRLQEADQLLSTRTEALEALQSEKSRIMQDQSEGNSLQNQALQTFQERLHEADATLKREQESYKQMQSEFAARLNKVEMERQNLAEAITLAERKYSDEKKRVDELQQQVKLYKLNLESSKQELIDYKQKATRILQSKEKLINSLKEGSGFEGLDSSTASSMELEELRHEKEMQREEIQKLMGQIHQLRSELQDMEAQQVNEAESAREQLQDLHDQIAGQKASKQELETELERLKQEFHYIEEDLYRTKNTLQSRIKDRDEEIQKLRNQLTNKTLSNSSQSELENRLHQLTETLIQKQTMLESLSTEKNSLVFQLERLEQQMNSASGSSSNGSSINMSGIDNGEGTRLRNVPVLFNDTETNLAGMYGKVRKAASSIDQFSIRLGIFLRRYPIARVFVIIYMALLHLWVMIVLLTYTPEMHHDQPYGK
B3: STX5, endogenous in 293T cells (protein, UniProt Q13190 1-355)
chain: MIPRKRYGSKNTDQGVYLGLSKTQVLSPATAGSSSSDIAPLPPPVTLVPPPPDTMSCRDRTQEFLSACKSLQTRQNGIQTNKPALRAVRQRSEFTLMAKRIGKDLSNTFAKLEKLTILAKRKSLFDDKAVEIEELTYIIKQDINSLNKQIAQLQDFVRAKGSQSGRHLQTHSNTIVVSLQSKLASMSNDFKSVLEVRTENLKQQRSRREQFSRAPVSALPLAPNHLGGGAVVLGAESHASKDVAIDMMDSRTSQQLQLIDEQDSYIQSRADTMQNIESTIVELGSIFQQLAHMVKEQEETIQRIDENVLGAQLDVEAAHSEILKYFQSVTSNRWLMVKIFLILIVFFIIFVVFLA
B4: GOSR2, endogenous in 293T cells (protein, UniProt O14653 1-212)
chain: MDPLFQQTHKQVHEIQSCMGRLETADKQSVHIVENEIQASIDQIFSRLERLEILSSKEPPNKRQNARLRVDQLKYDVQHLQTALRNFQHRRHAREQQERQREELLSRTFTTNDSDTTIPMDESLQFNSSLQKVHNGMDDLILDGHNILDGLRTQRLTLKGTQKKILDIANMLGLSNTVMRLIEKRAFQDKYFMIGGMLLTCVVMFLVVQYLT
B5: SEC24B, endogenous in 293T cells (protein, UniProt O95487 1-1268)
chain: MSAPAGSSHPAASARIPPKFGGAAVSGAAAPAGPGAGPAPHQQNGPAQNQMQVPSGYGLHHQNYIAPSGHYSQGPGKMTSLPLDTQCGDYYSALYTVPTQNVTPNTVNQQPGAQQLYSRGPPAPHIVGSTLGSFQGAASSASHLHTSASQPYSSFVNHYNSPAMYSASSSVASQGFPSTCGHYAMSTVSNAAYPSVSYPSLPAGDTYGQMFTSQNAPTVRPVKDNSFSGQNTAISHPSPLPPLPSQQHHQQQSLSGYSTLTWSSPGLPSTQDNLIRNHTGSLAVANNNPTITVADSLSCPVMQNVQPPKSSPVVSTVLSGSSGSSSTRTPPTANHPVEPVTSVTQPSELLQQKGVQYGEYVNNQASSAPTPLSSTSDDEEEEEEDEEAGVDSSSTTSSASPMPNSYDALEGGSYPDMLSSSASSPAPDPAPEPDPASAPAPASAPAPVVPQPSKMAKPFGYGYPTLQPGYQNATAPLISGVQPSNPVYSGFQQYPQQYPGVNQLSSSIGGLSLQSSPQPESLRPVNLTQERNILPMTPVWAPVPNLNADLKKLNCSPDSFRCTLTNIPQTQALLNKAKLPLGLLLHPFRDLTQLPVITSNTIVRCRSCRTYINPFVSFIDQRRWKCNLCYRVNDVPEEFMYNPLTRSYGEPHKRPEVQNSTVEFIASSDYMLRPPQPAVYLFVLDVSHNAVEAGYLTILCQSLLENLDKLPGDSRTRIGFMTFDSTIHFYNLQEGLSQPQMLIVSDIDDVFLPTPDSLLVNLYESKELIKDLLNALPNMFTNTRETHSALGPALQAAFKLMSPTGGRVSVFQTQLPSLGAGLLQSREDPNQRSSTKVVQHLGPATDFYKKLALDCSGQQTAVDLFLLSSQYSDLASLACMSKYSAGCIYYYPSFHYTHNPSQAEKLQKDLKRYLTRKIGFEAVMRIRCTKGLSMHTFHGNFFVRSTDLLSLANINPDAGFAVQLSIEESLTDTSLVCFQTALLYTSSKGERRIRVHTLCLPVVSSLADVYAGVDVQAAICLLANMAVDRSVSSSLSDARDALVNAVVDSLSAYGSTVSNLQHSALMAPSSLKLFPLYVLALLKQKAFRTGTSTRLDDRVYAMCQIKSQPLVHLMKMIHPNLYRIDRLTDEGAVHVNDRIVPQPPLQKLSAEKLTREGAFLMDCGSVFYIWVGKGCDNNFIEDVLGYTNFASIPQKMTHLPELDTLSSERARSFITWLRDSRPLSPILHIVKDESPAKAEFFQHLIEDRTEAAFSYYEFLLHVQQQICK
B6: GOSR1, endogenous in 293T cells (protein, UniProt O95249 1-250)
chain: MAAGTSSYWEDLRKQARQLENELDLKLVSFSKLCTSYSHSSTRDGRRDRYSSDTTPLLNGSSQDRMFETMAIEIEQLLARLTGVNDKMAEYTNSAGVPSLNAALMHTLQRHRDILQDYTHEFHKTKANFMAIRERENLMGSVRKDIESYKSGSGVNNRRTELFLKEHDHLRNSDRLIEETISIAMATKENMTSQRGMLKSIHSKMNTLANRFPAVNSLIQRINLRKRRDSLILGGVIGICTILLLLYAFH
B7: BET1L, endogenous in 293T cells (protein, UniProt Q9NYM9 1-111)
chain: MADWARAQSPGAVEEILDRENKRMADSLASKVTRLKSLALDIDRDAEDQNRYLDGMDSDFTSMTSLLTGSVKRFSTMARSGQDNRKLLCGMAVGLIVAFFILSYFLSRART
B8: WDR11, endogenous in 293T cells (protein, UniProt Q9BZH6 1-1224)
chain: MLPYTVNFKVSARTLTGALNAHNKAAVDWGWQGLIAYGCHSLVVVIDSITAQTLQVLEKHKADVVKVKWARENYHHNIGSPYCLRLASADVNGKIIVWDVAAGVAQCEIQEHAKPIQDVQWLWNQDASRDLLLAIHPPNYIVLWNADTGTKLWKKSYADNILSFSFDPFDPSHLTLLTSEGIVFISDFSPSKPPSGPGKKVYISSPHSSPAHNKLATATGAKKALNKVKILITQEKPSAEFITLNDCLQLAYLPSKRNHMLLLYPREILILDLEVNQTVGVIAIERTGVPFLQVIPCFQRDGLFCLHENGCITLRVRRSYNNIFTTSNEEPDPDPVQELTYDLRSQCDAIRVTKTVRPFSMVCCPVNENAAALVVSDGRVMIWELKSAVCNRNSRNSSSGVSPLYSPVSFCGIPVGVLQNKLPDLSLDNMIGQSAIAGEEHPRGSILREVHLKFLLTGLLSGLPAPQFAIRMCPPLTTKNIKMYQPLLAVGTSNGSVLVYHLTSGLLHKELSIHSCEVKGIEWTSLTSFLSFATSTPNNMGLVRNELQLVDLPTGRSIAFRGERGNDESAIEMIKVSHLKQYLAVVFRDKPLELWDVRTCTLLREMSKNFPTITALEWSPSHNLKSLRKKQLATREAMARQTVVSDTELSIVESSVISLLQEAESKSELSQNISAREHFVFTDIDGQVYHLTVEGNSVKDSARIPPDGSMGSITCIAWKGDTLVLGDMDGNLNFWDLKGRVSRGIPTHRSWVRKIRFAPGKGNQKLIAMYNDGAEVWDTKEVQMVSSLRSGRNVTFRILDVDWCTSDKVILASDDGCIRVLEMSMKSACFRMDEQELTEPVWCPYLLVPRASLALKAFLLHQPWNGQYSLDISHVDYPENEEIKNLLQEQLNSLSNDIKKLLLDPEFTLLQRCLLVSRLYGDESELHFWTVAAHYLHSLSQEKSASTTAPKEAAPRDKLSNPLDICYDVLCENAYFQKFQLERVNLQEVKRSTYDHTRKCTDQLLLLGQTDRAVQLLLETSADNQHYYCDSLKACLVTTVTSSGPSQSTIKLVATNMIANGKLAEGVQLLCLIDKAADACRYLQTYGEWNRAAWLAKVRLNPEECADVLRRWVDHLCSPQVNQKSKALLVLLSLGCFFSVAETLHSMRYFDRAALFVEACLKYGAFEVTEDTEKLITAIYADYARSLKNLGFKQGAVLFASKAGAAGKDLLNELESPKEEPIEE
B9: BET1, endogenous in 293T cells (protein, UniProt O15155 1-118)
chain: MRRAGLGEGVPPGNYGNYGYANSGYSACEEENERLTESLRSKVTAIKSLSIEIGHEVKTQNKLLAEMDSQFDSTTGFLGKTMGKLKILSRGSQTKLLCYMMLFSLFVFFIIYWIIKLR

Target: FHIP2B tagged at the carboxy terminus with BioID2 and 3xFLAG (human) (UniProt Q86V87)
Experiment: proximity labelling; BioID2 fused to the carboxy terminus of the bait in stable doxycycline-inducible 293T lines; 50 µM biotin 16 hr; RIPA lysis, streptavidin beads, on-bead digestion, MS; hits ≥threefold over cytoplasmic BioID2 control or absent from it, p < 0.05, three of four replicates

binding | Binder
binds | B1
binds | B2

Target: FHIP2A tagged at the carboxy terminus with BioID2 and 3xFLAG (human) (UniProt Q5W0V3)
Experiment: as above

binding | Binder
binds | B3
binds | B4
binds | B1
binds | B5
binds | B6
binds | B7
binds | B8
binds | B9
binds | B2
